According to patent US20260167703A1:
No constants are given. Whether binding was seen depends on the method and setting. For part of these data: Binding calls can cover weak binding; strength is not graded here.

Legend:
Experiment in all cases: Luminex bead assay (antigen on MagPlex beads, MFI)
[1] = target: DENV-1 VLP (Dengue virus serotype 1, strain Puerto Rico/US/BID-V853/1998)
[2] = target: DENV-3 VLP (Dengue virus serotype 3, strain Sri Lanka D3/H/IMTSSA-SRI/2000/1266)
[3] = target: Dengue Virus Serotype 4 envelope protein (Dengue virus serotype 4, strain Philippines/H241)

B1: DENV4-7D5 (antibody, V domains shown)
VH: QSVEESGGRLVTPGTPLTLTCTVSGIDLSSWEMGWVRQAPGKGLEWIGIIFPSGTIYYANWAKGRFAISKASTTVDLKITSPTTEDTATYFCGRHGGSLYLNIWGPGTLVTVSL
VL: AQVLTQTPSPVSAAVGGTVTINCQASQSVYVNRNLAWYQQKPGQPPKVLIYEASKLASGVPSRFKGSGSGTQFTLTISGVQCDDAATYYCQGEFGCSSADCIAFGGGTEVVVK
For B1, the binding [1] was “no binding (tested: 10000 ng/mL)” and the binding [2] was “no binding (tested: 10000 ng/mL)”.

B2: DENV4-8C7 (antibody, V domains shown)
VH: QSVEESGGRLVTPGTPLTLTCTVSGIDLSSYEMGWVRQAPGKGLEWIGIIFPSGTIYYANWAKGRFTISKTSTTVDLKITSPTTEDTATYFCGRHGGSLYLNIWGPGTLVTVSL
VL: AQVLTQTPSPVSAAVGGTVTINCQASQSVYVNRNLAWYQQKPGQPPKVLIYEASKLASGVPSRFKGSGSGTQFTLTISGVQCDDAATYYCQGEFGCSSADCIAFGGGTEVVVK
For B2, the binding [1] was “no binding (tested: 10000 ng/mL)” and the binding [2] was “no binding (tested: 10000 ng/mL)”.

B3: DENV4-5B11 (antibody, V domains shown)
VH: QSVEESGGRLVTPGTPLTLTCTVSGFSLSDSAMSWVRQAPGKGLEWIGYIYAGSGTTYYASWAKGRFTISKTSTTVDLKITSPTTEDTATYFCARATAYVGYGYGDDTFDPWGPGTLVTVSS
VL: AYDMTQTPASVEVAVGGTVTIKCQASQSISSYLSWYQQKPGQRPKLLIYRASTLASGVSSRFKGSGSGTEFTLTISGVQCDDAATYYCQQGYSNSDVDNVFGGGTEVVVK
In the case of B3, the binding [1] is reported as “no binding (tested: 10000 ng/mL)” and the binding [2] is reported as “no binding (tested: 10000 ng/mL)”.

B4: DENV4-7G4 (antibody, V domains shown)
VH: QSVEESGGRLVTPGTPLTLTCTVSGFSLSSCAMTWVRQAPGKGLEWIGYIYVDSDTTYYASWAKGRFTISTTSTTVDLRITSPTTEDTATYFCARTTAYVGGGYGDDTFDPWGPGTLVTVSS
VL: DVVMTQTPASVEAAVGGTVTINCQASQNINSYLSWYQQKPGQRPKLLIYRAFTLASGVSSRFKGSGSGTQFTLTISGVECADAATYYCQQGYSFSGVDNVFGGGTEVVVK
With B4 the binding [1] was “no binding (tested: 10000 ng/mL)”, the binding [2] was “no binding (tested: 10000 ng/mL)” and the binding [3] was “no binding (tested: 10000 ng/mL)”.

B5: DENV2-3H11 (antibody, V domains shown)
VH: QSVEESGGRLVTPGTPLTLTCTVSGFSLINYDMSWIRQAPGKGLEWIGMVSGGGHTNYASWANGRFTISKTSSTTMDLKITSPTTEDTASYFCGRWDIWGPGTLVTVSL
VL: AVVVTQTASPVSAAVGGTVTISCQSSQSVYDDNWLAWYQQKPGQPPKQLIYRASRLASGVPSRFSGTGSGTQFTLTISGVQCDDAATYYCLGGYVDDGDTTFGGGTEVVVK
For B5, the binding [1] was “no binding (tested: 10000 ng/mL)” and the binding [2] was “binds”.

B6: DENV4-7F2 (antibody, V domains shown)
VH: QSVEESGGRLVTPGTPLTLTCTVSGIDLSYYAMGWVRQAPGEGLECIGFIDTGDSAYYASWAKGRFTISKTSSTTVDLKITSPTPEDTATYFCGRSLSSYYDWDAFDPWGPGTLVTVSS
VL: AYDMTQTPASVEVAVGGTVTINCQASQTIGNLLAWYQQKPGQRPKLLIYRASTLASGVPSRFKGSGSGTQFTLTISGVECADAATYYCQQGASANDIDNSFGGGTAVVVK
B6 was tested, and the binding [1] was “no binding (tested: 10000 ng/mL)” and the binding [2] was “no binding (tested: 10000 ng/mL)”.

B7: DENV4-10A11 (antibody, V domains shown)
VH: QSVEESGGRLVTPGTPLTLTCTVSGINLSFYAMGWVRQAPGKGLECVGFIDTDNSAYYASWAKGRFTISKTSTTVDLKITSPTTEDTATYFCARSLSSFYDWDAFDPWGPGTLVTVSS
VL: AYDMTQTPASVEVAVGGTVTIKCLASQSISNLLAWYQQKPGQRPKLLIYRASTLASGVPSRFKGSGSGTQFTLTISGVECADAATYYCQQGASNSDIDNAFGGGTEVVVK
For B7, the binding [1] was “no binding (tested: 10000 ng/mL)” and the binding [2] was “no binding (tested: 10000 ng/mL)”.

B8: DENV2-5F4 (antibody, V domains shown)
VH: QSVEESGGRLVKPDETLTLTCTVSGIDLSNTVISWVRQAPGKGLEYIGMITPSGSAYSATWAKGRVTISRTSTTVDLKIASPTTEDTATYFCARIAWSTGRNDIWGPGTLVTVSS
VL: AAVLTQTPPSVSAAVGGTVTIKCQSSQSVYNNNALSWYQQKPGQPPKLLIYQASKLSSGVSSRFSGSGSGTHFTLTISGVQCDDAATYYCLGIYDDDVDNTFGGGTEVVVG
With B8 the binding [1] was “no binding (tested: 10000 ng/mL)” and the binding [2] was “no binding (tested: 10000 ng/mL)”.

B9: DENV2-8D8 (antibody, V domains shown)
VH: QSLEESGGRLVKPDETLTLTCTVSGIDLSSTIITWVRQAPGKGLEYIGIIGSSGSIISANWAKGRFTISRTSTTVDLKMTSLTTEDTATYFCARIAWSTGRNDIWGPGTLVTVSS
VL: AAVLTQTPPSVSAAVGGTVTISCQSSQSVYNNNALSWYQQKPGQPPKLLIYLASNLASGVPSRFSGSGSGTQFTLTISGVQCDDAATYHCLGVDDDDVDNTFGGGTEVVVK
B9 was tested, and the binding [1] was “no binding (tested: 10000 ng/mL)” and the binding [2] was “no binding (tested: 10000 ng/mL)”.

B10: DENV4-9G8 (antibody, V domains shown)
VH: QSLEESGGGLVKPGASLTLTCTASGFSFSYRYWMSWVRQAPGKRPEWIACIDTGNGDTYYASRAKGRFTIMKTSSTTVTLQMTSLTVADTATYFCARSDVTLTGYGYGNLWGPGTLVTVSS
VL: DSVMTQTPASVSEPVGGTVTINCQASHNIYNSLAWYQQKPGQPPKLLIYRASTLESGVPSRVKGSGYGTEYTLTISDLECADAATYYCQQYYGGDDDGFGFGGGTEVVVK
In the case of B10, the binding [1] is reported as “no binding (tested: 10000 ng/mL)” and the binding [2] is reported as “no binding (tested: 10000 ng/mL)”.
